The list shows a part of the results.

Protein sequences, listed by entry. Tags and fused reporters are not part of them. Lines headed by an entry give the natural chain unless they say otherwise; changes in a name come on top.
UniProt O00116: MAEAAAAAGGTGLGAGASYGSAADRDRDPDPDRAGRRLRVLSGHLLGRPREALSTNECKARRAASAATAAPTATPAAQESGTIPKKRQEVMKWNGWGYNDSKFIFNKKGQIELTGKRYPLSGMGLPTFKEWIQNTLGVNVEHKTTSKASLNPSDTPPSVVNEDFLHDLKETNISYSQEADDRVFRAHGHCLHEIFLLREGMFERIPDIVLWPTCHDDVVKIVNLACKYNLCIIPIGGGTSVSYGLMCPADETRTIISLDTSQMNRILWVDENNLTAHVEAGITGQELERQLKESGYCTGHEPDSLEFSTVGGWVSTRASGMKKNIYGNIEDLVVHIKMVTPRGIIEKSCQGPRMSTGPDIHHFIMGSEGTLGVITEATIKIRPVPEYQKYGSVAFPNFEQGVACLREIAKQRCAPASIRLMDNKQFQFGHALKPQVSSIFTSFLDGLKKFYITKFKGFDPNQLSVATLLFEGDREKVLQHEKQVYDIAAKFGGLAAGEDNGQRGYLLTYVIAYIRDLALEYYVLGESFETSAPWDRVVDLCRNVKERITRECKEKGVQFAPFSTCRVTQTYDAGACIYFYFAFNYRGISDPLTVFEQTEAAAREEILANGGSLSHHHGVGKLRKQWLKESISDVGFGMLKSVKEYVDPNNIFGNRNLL
UniProt O15120: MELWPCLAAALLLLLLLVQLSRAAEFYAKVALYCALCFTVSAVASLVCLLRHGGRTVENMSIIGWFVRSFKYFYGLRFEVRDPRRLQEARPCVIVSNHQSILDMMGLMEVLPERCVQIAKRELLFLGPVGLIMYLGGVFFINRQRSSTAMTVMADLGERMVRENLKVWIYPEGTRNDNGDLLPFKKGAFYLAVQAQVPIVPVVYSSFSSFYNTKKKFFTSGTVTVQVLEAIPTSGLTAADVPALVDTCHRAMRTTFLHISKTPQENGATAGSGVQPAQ
UniProt Q8IWZ3: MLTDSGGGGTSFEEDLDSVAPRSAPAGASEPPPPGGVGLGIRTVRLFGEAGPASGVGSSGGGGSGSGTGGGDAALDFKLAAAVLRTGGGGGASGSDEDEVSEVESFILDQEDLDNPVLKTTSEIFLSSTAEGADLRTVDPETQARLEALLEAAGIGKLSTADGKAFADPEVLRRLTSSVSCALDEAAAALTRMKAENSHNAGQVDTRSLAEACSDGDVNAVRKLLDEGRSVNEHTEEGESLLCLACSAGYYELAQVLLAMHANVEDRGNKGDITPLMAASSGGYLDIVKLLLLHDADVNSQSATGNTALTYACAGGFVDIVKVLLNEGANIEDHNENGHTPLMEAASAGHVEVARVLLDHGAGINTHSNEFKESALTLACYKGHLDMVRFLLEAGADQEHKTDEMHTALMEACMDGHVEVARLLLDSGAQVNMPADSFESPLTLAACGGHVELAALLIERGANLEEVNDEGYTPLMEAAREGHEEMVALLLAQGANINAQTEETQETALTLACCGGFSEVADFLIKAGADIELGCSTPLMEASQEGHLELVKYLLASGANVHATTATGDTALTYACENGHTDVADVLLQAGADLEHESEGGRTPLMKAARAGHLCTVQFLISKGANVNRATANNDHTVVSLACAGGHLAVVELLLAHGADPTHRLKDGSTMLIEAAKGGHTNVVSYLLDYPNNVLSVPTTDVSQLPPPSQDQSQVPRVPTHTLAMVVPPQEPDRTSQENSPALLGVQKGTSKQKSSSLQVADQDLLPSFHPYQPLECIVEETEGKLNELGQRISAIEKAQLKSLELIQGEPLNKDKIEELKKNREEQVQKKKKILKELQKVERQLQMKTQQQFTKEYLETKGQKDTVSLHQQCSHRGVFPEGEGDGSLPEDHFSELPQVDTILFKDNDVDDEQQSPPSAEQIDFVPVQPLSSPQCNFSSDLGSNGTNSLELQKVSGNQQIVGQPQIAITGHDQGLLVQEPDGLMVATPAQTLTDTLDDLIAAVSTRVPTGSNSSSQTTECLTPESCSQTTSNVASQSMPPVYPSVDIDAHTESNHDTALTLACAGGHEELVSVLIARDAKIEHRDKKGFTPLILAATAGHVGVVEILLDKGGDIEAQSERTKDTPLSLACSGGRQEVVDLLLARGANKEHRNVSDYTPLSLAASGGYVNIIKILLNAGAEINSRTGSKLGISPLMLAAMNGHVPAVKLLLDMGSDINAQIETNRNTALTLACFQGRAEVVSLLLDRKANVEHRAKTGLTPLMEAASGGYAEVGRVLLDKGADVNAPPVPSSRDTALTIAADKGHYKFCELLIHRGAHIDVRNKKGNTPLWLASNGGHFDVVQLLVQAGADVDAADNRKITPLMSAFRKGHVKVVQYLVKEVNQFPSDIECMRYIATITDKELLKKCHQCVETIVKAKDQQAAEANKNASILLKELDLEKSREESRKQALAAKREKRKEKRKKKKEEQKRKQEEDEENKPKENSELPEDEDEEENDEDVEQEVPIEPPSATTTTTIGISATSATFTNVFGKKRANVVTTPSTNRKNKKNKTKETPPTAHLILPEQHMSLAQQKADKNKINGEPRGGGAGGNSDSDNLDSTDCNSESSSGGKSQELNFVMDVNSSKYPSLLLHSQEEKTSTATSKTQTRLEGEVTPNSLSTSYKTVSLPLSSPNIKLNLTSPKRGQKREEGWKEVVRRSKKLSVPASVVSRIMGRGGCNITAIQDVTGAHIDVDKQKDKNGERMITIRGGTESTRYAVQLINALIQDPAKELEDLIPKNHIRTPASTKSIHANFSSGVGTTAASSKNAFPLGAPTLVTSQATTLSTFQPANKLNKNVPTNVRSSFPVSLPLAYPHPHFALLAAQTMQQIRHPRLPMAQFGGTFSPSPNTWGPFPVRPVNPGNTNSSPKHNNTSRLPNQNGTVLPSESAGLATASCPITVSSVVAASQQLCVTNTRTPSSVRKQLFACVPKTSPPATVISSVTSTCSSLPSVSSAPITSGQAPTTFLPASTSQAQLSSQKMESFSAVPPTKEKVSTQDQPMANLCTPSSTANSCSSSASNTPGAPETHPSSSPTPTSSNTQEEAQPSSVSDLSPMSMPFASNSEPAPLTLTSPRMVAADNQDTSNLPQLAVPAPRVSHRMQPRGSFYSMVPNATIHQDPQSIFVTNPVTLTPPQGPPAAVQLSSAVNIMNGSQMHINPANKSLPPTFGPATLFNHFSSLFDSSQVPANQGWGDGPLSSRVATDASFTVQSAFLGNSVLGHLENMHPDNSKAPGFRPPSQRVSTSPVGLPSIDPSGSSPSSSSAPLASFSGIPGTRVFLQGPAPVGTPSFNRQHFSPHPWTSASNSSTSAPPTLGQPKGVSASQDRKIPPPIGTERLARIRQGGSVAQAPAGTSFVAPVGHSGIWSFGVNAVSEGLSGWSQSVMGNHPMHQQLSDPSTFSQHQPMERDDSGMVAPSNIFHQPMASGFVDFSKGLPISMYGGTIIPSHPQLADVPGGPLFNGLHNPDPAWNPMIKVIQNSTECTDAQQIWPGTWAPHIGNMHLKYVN
UniProt Q8IZ83: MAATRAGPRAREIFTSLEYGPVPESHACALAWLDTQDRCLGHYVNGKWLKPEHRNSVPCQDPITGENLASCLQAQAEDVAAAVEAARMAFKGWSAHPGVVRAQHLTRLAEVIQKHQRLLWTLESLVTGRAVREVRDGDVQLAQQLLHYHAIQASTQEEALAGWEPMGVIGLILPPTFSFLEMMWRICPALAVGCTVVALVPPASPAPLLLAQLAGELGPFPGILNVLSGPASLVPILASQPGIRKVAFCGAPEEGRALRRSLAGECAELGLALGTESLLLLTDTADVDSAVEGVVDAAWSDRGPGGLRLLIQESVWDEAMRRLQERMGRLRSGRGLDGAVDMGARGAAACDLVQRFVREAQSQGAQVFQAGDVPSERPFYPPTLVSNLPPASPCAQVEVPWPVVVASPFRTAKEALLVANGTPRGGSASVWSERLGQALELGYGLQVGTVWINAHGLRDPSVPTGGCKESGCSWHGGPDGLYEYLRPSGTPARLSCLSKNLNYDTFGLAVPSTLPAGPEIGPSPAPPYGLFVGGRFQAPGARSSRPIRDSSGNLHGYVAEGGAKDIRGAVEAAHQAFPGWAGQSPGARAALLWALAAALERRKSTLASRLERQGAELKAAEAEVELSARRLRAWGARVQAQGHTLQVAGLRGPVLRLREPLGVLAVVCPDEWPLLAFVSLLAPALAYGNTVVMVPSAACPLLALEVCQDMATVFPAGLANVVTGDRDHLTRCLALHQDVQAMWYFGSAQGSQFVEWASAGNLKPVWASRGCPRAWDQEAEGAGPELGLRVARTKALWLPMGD
UniProt P30038: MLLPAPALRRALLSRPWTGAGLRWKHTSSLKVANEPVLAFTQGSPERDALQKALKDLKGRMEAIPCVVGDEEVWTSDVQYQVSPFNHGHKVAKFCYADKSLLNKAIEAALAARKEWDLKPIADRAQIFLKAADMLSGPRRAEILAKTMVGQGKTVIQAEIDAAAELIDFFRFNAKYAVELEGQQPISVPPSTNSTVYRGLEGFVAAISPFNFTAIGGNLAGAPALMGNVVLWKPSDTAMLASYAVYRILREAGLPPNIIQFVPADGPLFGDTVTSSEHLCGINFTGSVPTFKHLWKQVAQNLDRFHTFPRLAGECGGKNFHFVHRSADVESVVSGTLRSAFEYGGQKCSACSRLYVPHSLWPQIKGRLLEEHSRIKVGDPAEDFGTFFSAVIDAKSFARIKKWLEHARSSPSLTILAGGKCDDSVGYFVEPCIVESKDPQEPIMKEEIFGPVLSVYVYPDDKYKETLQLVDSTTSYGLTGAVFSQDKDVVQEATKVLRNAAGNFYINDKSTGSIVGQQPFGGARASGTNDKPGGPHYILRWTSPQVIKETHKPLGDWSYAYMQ
UniProt Q9NYG5, whole entry, looked up: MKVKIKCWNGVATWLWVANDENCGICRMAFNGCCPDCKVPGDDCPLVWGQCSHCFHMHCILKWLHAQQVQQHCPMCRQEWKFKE
UniProt P49189: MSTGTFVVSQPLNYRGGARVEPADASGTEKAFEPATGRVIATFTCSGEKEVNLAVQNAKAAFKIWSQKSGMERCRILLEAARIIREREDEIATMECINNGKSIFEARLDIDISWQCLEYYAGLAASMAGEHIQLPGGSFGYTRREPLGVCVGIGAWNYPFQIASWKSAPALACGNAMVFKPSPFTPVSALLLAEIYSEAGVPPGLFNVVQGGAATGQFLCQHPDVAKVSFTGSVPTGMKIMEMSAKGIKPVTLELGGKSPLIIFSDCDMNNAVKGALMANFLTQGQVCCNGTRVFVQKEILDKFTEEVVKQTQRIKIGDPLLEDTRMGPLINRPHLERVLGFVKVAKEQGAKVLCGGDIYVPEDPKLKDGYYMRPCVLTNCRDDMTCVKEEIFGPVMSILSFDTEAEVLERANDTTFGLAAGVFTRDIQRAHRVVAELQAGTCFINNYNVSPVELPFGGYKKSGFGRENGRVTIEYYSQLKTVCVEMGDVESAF
UniProt Q6P6C2: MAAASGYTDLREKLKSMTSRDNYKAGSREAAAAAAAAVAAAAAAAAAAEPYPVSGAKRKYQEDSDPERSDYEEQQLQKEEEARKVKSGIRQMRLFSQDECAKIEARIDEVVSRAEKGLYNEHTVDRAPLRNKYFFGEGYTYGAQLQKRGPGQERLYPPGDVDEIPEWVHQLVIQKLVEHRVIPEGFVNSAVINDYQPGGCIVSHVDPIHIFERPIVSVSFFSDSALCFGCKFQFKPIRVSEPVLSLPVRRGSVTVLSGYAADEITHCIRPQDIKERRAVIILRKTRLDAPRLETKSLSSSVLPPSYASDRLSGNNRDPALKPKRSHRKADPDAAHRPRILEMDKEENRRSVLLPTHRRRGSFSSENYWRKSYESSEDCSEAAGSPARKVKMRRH
UniProt P30837: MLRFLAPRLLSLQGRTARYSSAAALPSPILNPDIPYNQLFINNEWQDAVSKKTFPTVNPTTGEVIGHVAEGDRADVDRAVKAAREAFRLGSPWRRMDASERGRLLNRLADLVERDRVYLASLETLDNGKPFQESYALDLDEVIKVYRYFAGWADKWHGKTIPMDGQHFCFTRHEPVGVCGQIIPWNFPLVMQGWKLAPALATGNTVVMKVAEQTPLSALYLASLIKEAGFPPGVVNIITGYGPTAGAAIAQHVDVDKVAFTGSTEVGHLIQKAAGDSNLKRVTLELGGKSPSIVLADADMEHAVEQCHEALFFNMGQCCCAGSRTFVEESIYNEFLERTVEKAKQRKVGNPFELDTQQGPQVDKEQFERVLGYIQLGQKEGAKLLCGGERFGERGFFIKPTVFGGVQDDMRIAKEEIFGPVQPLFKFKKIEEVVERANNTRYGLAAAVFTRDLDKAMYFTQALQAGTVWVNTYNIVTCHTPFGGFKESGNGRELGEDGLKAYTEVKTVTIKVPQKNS

The text below walks through data of the supplement of paper PMC12067093, “Discovery and optimisation of a covalent ligand for TRIM25 and its application to targeted protein ubiquitination” (Chemical Science, 2025).
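Further: competitive profiling in live THP-1 cells: cysteine peptides tagged with an iodoacetamide desthiobiotin (IA-DTB) probe, intensity after compound treatment relative to DMSO-treated cells.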

Compound in the experiment: Cc1cc(ccc1-c1ccccc1)C(=O)N1CCCN(CC1)C(=O)CCl [compound 10]
The experiment is described as follows: probe-labelled cysteine peptide fold change vs DMSO (competition) (log2 fold change); higher = less target engagement (more negative = stronger competition). The settings on record: 10 µM; THP-1; incubation time: 4 h.
As for “AGPS_O00116_226_IVNLACK (UniProt O00116)”, the “probe-labelled cysteine peptide fold change” value is 0.238. Take “ALDH18A1_P54886_674_SLRTEYGDLELCIEVVDNVQDAIDHIHK (UniProt P54886)”: the “probe-labelled cysteine peptide fold change” value came out at 0.115. Then “AGPAT2_O15120_92_PCVIVSNHQSILDMMGLMEVLPER (UniProt O15120)”, with 0.571; and “ANKHD1_Q8IWZ3-6_2579_VPAGVQELTHCPDTPLLPPSDSR (UniProt Q8IWZ3)”, with -0.109. Under “ALDH16A1_Q8IZ83_467_DPSVPTGGCK (UniProt Q8IZ83)” stands -0.0757; under “ANKFY1_Q9P2R3_389_TPLHVSIMAGNEYVFSQLLQCK (UniProt Q9P2R3)”, 0.123; under “ALDH4A1_P30038_95_FCYADK (UniProt P30038)”, 0.038. With “ANAPC11_Q9NYG5_54_VPGDDCPLVWGQCSHCFHMHCILK (UniProt Q9NYG5)”, the “probe-labelled cysteine peptide fold change” value is 0.213.

Turning to “ALDH9A1_P49189_289_GALMANFLTQGQVCCNGTR (UniProt P49189)”, the “probe-labelled cysteine peptide fold change” value was determined as 0.00295.

“AMPD2_Q01433_310_TYEQGPDTPVSADAPVHPPALEQHPYEHCEPSTMPGDLGLGLR (UniProt Q01433)”: the “probe-labelled cysteine peptide fold change” value was -0.312. Regarding “ALKBH5_Q6P6C2_378_SYESSEDCSEAAGSPARK (UniProt Q6P6C2)”, the “probe-labelled cysteine peptide fold change” value was -0.176.

Consider “ALDH1B1_P30837_179_HEPVGVCGQIIPWNFPLVMQGWK (UniProt P30837)”, for which the “probe-labelled cysteine peptide fold change” value is -0.0239.

For the target “ALDH9A1_P49189_173_SAPALACGNAMVFK (UniProt P49189)”, the “probe-labelled cysteine peptide fold change” value came to 0.0109.

Regarding “AGPS_O00116_214_IPDIVLWPTCHDDVVK (UniProt O00116)”, the “probe-labelled cysteine peptide fold change” value is 0.00619.

With “ALDH9A1_P49189_150_REPLGVCVGIGAWNYPFQIASWK (UniProt P49189)”, the “probe-labelled cysteine peptide fold change” value amounted to 0.0657.
